{"source": "PubChem BioAssay AID652272 (Drosophila RNAi Screening Center, 2013)", "purpose": "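Genes whose knock-down decreases or increases Hedgehog reporter output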 (primary screen)", "cell system": "Drosophila clone 8 (Cl8) cells", "reagent": "long dsRNA against Drosophila genes", "read-out": "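Firefly light from a Hedgehog-responsive ptc promoter reporter and Renilla reference light, both read on a plate reader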", "scale": "firefly Hh reporter signal: higher = more ptc reporter light; Renilla reference signal: higher = more Renilla control light", "call rule": "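Hit when the z-score averaged over two replicates is under -2 or over +3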", "meaning of the calls": "active = hit: reporter lowered or raised; inactive = not a hit", "note": "The screen tested about 21,000 reagents; below is a random part of those that have a named target and a result. In the full data, 503 (2.4%) got an active call. 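Raw plate light values, not normalised; calls rest on replicate z-scores that were not deposited; hits include reporter decreases as well as increases.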 Not given: the amount of reagent, the time to read-out."}
The first 2 entries, ahead of the listing:
{"Gene": "CG3699", "PubChem SID": "SID104197963", "firefly Hh reporter signal, replicate 1": 91835, "firefly Hh reporter signal, replicate 2": 2.62e5, "Renilla reference signal, replicate 1": 3146, "Renilla reference signal, replicate 2": 10178, "Call": "inactive"}
{"Gene": "CG3699", "PubChem SID": "SID104198434", "firefly Hh reporter signal, replicate 1": 1.56e5, "firefly Hh reporter signal, replicate 2": 3.59e5, "Renilla reference signal, replicate 1": 6181, "Renilla reference signal, replicate 2": 12860, "Call": "inactive"}

The list itself, from the first entry:
{"Gene": "CG3699", "PubChem SID": "SID104197963", "firefly Hh reporter signal, replicate 1": 91835, "firefly Hh reporter signal, replicate 2": 2.62e5, "Renilla reference signal, replicate 1": 3146, "Renilla reference signal, replicate 2": 10178, "Call": "inactive"}
{"Gene": "CG3699", "PubChem SID": "SID104198434", "firefly Hh reporter signal, replicate 1": 1.56e5, "firefly Hh reporter signal, replicate 2": 3.59e5, "Renilla reference signal, replicate 1": 6181, "Renilla reference signal, replicate 2": 12860, "Call": "inactive"}
{"Gene": "Ant2 (Adenine nucleotide translocase 2)", "PubChem SID": "SID104199122", "firefly Hh reporter signal, replicate 1": 77808, "firefly Hh reporter signal, replicate 2": 85164, "Renilla reference signal, replicate 1": 1930, "Renilla reference signal, replicate 2": 2189, "Call": "inactive"}
{"Gene": "CG34290", "PubChem SID": "SID104193452", "firefly Hh reporter signal, replicate 1": 54166, "firefly Hh reporter signal, replicate 2": 2.67e5, "Renilla reference signal, replicate 1": 12772, "Renilla reference signal, replicate 2": 6033, "Call": "inactive"}
{"Gene": "mthl13 (methuselah-like 13)", "PubChem SID": "SID104185030", "firefly Hh reporter signal, replicate 1": 1.32e5, "firefly Hh reporter signal, replicate 2": 2.48e5, "Renilla reference signal, replicate 1": 3713, "Renilla reference signal, replicate 2": 10664, "Call": "inactive"}
{"Gene": "ind (intermediate neuroblasts defective)", "PubChem SID": "SID104191147", "firefly Hh reporter signal, replicate 1": 40160, "Renilla reference signal, replicate 1": 2646, "Renilla reference signal, replicate 2": 1492, "Call": "inactive"}
{"Gene": "CG32727", "PubChem SID": "SID104197311", "firefly Hh reporter signal, replicate 1": 3.30e5, "firefly Hh reporter signal, replicate 2": 1.12e5, "Renilla reference signal, replicate 1": 17568, "Renilla reference signal, replicate 2": 2128, "Call": "inactive"}
{"Gene": "spri (sprint)", "PubChem SID": "SID104197638", "firefly Hh reporter signal, replicate 1": 1.17e5, "firefly Hh reporter signal, replicate 2": 1.94e5, "Renilla reference signal, replicate 1": 2176, "Renilla reference signal, replicate 2": 6624, "Call": "inactive"}
{"Gene": "spri (sprint)", "PubChem SID": "SID104197776", "firefly Hh reporter signal, replicate 1": 55479, "firefly Hh reporter signal, replicate 2": 2.18e5, "Renilla reference signal, replicate 1": 1339, "Renilla reference signal, replicate 2": 7874, "Call": "inactive"}
{"Gene": "spri (sprint)", "PubChem SID": "SID104197777", "firefly Hh reporter signal, replicate 1": 1.15e5, "firefly Hh reporter signal, replicate 2": 3.28e5, "Renilla reference signal, replicate 1": 4165, "Renilla reference signal, replicate 2": 11536, "Call": "inactive"}
{"Gene": "spri (sprint)", "PubChem SID": "SID104197778", "firefly Hh reporter signal, replicate 1": 1.05e5, "firefly Hh reporter signal, replicate 2": 2.43e5, "Renilla reference signal, replicate 1": 2153, "Renilla reference signal, replicate 2": 9736, "Call": "inactive"}
{"Gene": "spri (sprint)", "PubChem SID": "SID104197780", "firefly Hh reporter signal, replicate 1": 62564, "firefly Hh reporter signal, replicate 2": 1.55e5, "Renilla reference signal, replicate 1": 1936, "Renilla reference signal, replicate 2": 8317, "Call": "inactive"}
{"Gene": "spri (sprint)", "PubChem SID": "SID104197781", "firefly Hh reporter signal, replicate 1": 67112, "firefly Hh reporter signal, replicate 2": 2.11e5, "Renilla reference signal, replicate 1": 2006, "Renilla reference signal, replicate 2": 9139, "Call": "inactive"}
{"Gene": "NO66 (Nucleolar protein 66)", "PubChem SID": "SID104198044", "firefly Hh reporter signal, replicate 1": 93606, "firefly Hh reporter signal, replicate 2": 1.27e5, "Renilla reference signal, replicate 1": 1778, "Renilla reference signal, replicate 2": 3840, "Call": "inactive"}
{"Gene": "CG16953", "PubChem SID": "SID104194959", "firefly Hh reporter signal, replicate 1": 1.16e5, "firefly Hh reporter signal, replicate 2": 97485, "Renilla reference signal, replicate 1": 4851, "Renilla reference signal, replicate 2": 3195, "Call": "inactive"}
{"Gene": "CG11454", "PubChem SID": "SID104180102", "firefly Hh reporter signal, replicate 1": 1.13e5, "firefly Hh reporter signal, replicate 2": 48966, "Renilla reference signal, replicate 1": 4899, "Renilla reference signal, replicate 2": 2377, "Call": "inactive"}
{"Gene": "CG32305", "PubChem SID": "SID104188406", "firefly Hh reporter signal, replicate 1": 64721, "firefly Hh reporter signal, replicate 2": 43264, "Renilla reference signal, replicate 1": 2325, "Renilla reference signal, replicate 2": 3607, "Call": "inactive"}
{"Gene": "Gr5a (Gustatory receptor 5a)", "PubChem SID": "SID104197877", "firefly Hh reporter signal, replicate 1": 71843, "firefly Hh reporter signal, replicate 2": 1.60e5, "Renilla reference signal, replicate 1": 2322, "Renilla reference signal, replicate 2": 6829, "Call": "inactive"}
{"Gene": "Mal-A1 (Maltase A1)", "PubChem SID": "SID104187253", "firefly Hh reporter signal, replicate 1": 78518, "firefly Hh reporter signal, replicate 2": 48289, "Renilla reference signal, replicate 1": 1702, "Renilla reference signal, replicate 2": 3698, "Call": "inactive"}
{"Gene": "ATP7", "PubChem SID": "SID104199611", "firefly Hh reporter signal, replicate 1": 68320, "firefly Hh reporter signal, replicate 2": 2.43e5, "Renilla reference signal, replicate 1": 2292, "Renilla reference signal, replicate 2": 8258, "Call": "inactive"}
{"Gene": "Nrt (Neurotactin)", "PubChem SID": "SID104191029", "firefly Hh reporter signal, replicate 1": 76865, "firefly Hh reporter signal, replicate 2": 54913, "Renilla reference signal, replicate 1": 3018, "Renilla reference signal, replicate 2": 2408, "Call": "inactive"}
